Measured values: article PMC11445549

The chains behind the UniProt entries cited, without tags or fusion partners.
UniProt P19474: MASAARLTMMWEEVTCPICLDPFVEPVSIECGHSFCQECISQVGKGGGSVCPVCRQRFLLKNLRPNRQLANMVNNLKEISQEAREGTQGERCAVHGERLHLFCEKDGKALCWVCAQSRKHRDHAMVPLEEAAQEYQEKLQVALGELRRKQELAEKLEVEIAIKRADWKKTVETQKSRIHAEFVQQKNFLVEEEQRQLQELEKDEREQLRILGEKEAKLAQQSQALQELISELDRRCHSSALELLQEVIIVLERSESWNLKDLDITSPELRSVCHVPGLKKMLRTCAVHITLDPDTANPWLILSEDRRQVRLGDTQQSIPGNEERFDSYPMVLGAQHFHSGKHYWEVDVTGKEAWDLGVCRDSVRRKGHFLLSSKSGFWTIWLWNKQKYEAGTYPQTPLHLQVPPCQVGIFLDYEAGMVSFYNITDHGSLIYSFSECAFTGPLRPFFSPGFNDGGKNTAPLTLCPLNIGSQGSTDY

Target: T1, EPDR1 (bait of the immunoprecipitation-mass spectrometry in HepG2 cells) (UniProt Q9UM22)
T1 sequence: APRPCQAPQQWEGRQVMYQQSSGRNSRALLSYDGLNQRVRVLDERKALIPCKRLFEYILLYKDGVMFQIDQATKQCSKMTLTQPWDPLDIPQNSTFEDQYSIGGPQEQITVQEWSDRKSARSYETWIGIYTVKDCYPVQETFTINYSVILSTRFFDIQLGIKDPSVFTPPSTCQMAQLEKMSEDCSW
Assay: affinity purification with mass spectrometry; immunoprecipitation of EPDR1 from HepG2 cells, LC-MS/MS

binding: binds
Substance: TRIM21 (found by LC-MS/MS with EPDR1 in HepG2 cells) (from UniProt P19474 1-475)

No constants are given. Whether binding was seen depends on the method and setting. In cells and extracts the contact can be indirect. A yes stands for co-enrichment or nearness to the bait. Other partners may have been found.
